Test results reported in patent EP1060182B1, “NOVEL PRODRUGS FOR PHOSPHORUS-CONTAINING COMPOUNDS” (Metabasis Therapeutics, Inc., priority 1998, dated 1999).
Some results were stated once for a whole list of compounds, not compound by compound.

Tested on: human liver microsomes
Experiment: Identification of the p450 isozyme involved in activation, with specific p450 inhibitors (Example F)
Conditions: furafylline (CYP1A2) and sulfaphenazole (CYP2C9), 0-100 µM, 250 µM 30.1
Experimental: Reactions were stopped by addition of methanol to a concentration of 60%, filtered (0.2 µM filter), and lyophilized. Samples were resuspended in HPLC buffer (10 mM phosphate pH 5.5, 2.5 mM octyl-triethyl-ammonium), loaded onto a YMC C8 HPLC column (250 x 4.6 mm), and eluted with a methanol gradient to 80%.

For `Nc1ccc(S(=O)(=O)Nc2ccnn2-c2ccccc2)cc1` [sulfaphenazole], the “inhibition of the formation of ara-AMP from 30.1” value was “no significant inhibition”.
